Measured values as given in ChEMBL document CHEMBL3102757, “Synthesis and evaluation of the antiparasitic activity of bis-(arylmethylidene) cycloalkanones” (Eur J Med Chem, 2014).

By UniProt entry, the sequences of proteins in these tests, tags left out. Where a name states a change or a piece, a line headed by the entry shows the natural chain unless it says otherwise.
UniProt P28593: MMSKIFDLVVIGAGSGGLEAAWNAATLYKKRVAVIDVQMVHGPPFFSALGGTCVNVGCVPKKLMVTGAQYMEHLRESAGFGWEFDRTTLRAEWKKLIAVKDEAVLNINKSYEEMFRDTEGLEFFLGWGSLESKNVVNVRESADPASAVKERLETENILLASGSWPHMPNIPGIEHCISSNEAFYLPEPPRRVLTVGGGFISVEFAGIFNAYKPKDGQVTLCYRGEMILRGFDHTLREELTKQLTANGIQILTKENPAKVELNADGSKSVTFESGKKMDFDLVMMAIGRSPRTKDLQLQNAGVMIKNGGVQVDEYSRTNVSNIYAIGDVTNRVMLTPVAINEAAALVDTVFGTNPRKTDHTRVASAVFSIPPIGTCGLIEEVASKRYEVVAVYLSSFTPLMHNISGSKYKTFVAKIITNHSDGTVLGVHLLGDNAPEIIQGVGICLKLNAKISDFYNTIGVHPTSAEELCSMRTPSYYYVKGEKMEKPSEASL

Target: Trypanothione reductase (Trypanosoma cruzi, UniProt P28593)
Experiment: Inhibition of Trypanosoma cruzi trypanothione reductase expressed in Escherichia coli BL21(DE3) assessed as reduction of oxidized trypanothione preincubated for 30 mins measured for 30 mins by spectrophotometric analysis

## CN(C)CCCN1c2ccccc2CCc2ccc(Cl)cc21 [CLOMIPRAMINE]
  IC50: 12.3 µM
